Measured values published in paper PMC2944810.
Results are given in words; binding and its absence hold for the method and conditions named. In cells and extracts the contact can be indirect. A result given as binding can be weak or reduced; the word gives no strength. Sequences can lack the tags named with a protein.

Assays:
Assay in all cases: FRET or BRET; FRET-FLIM in living N. benthamiana leaf epidermal cells after transient co-expression by agro-infiltration; GFP fusion of the movement protein as donor, RFP fusion as acceptor; fluorescence lifetime of the donor measured at tubules or plasmodesmata
[1] = target: T1, PDLP7:RFP (plasmodesmata-located protein 7 fused to RFP) (Arabidopsis thaliana) (UniProt Q0WPN8)
T1 sequence: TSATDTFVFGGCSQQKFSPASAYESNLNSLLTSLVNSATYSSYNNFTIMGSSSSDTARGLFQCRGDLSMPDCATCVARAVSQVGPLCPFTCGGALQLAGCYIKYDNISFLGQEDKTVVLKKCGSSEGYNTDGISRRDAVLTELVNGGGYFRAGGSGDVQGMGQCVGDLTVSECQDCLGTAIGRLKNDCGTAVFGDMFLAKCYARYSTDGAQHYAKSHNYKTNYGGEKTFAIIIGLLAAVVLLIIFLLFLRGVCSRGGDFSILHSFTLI

[2] = target: T2, PDLP3:RFP (plasmodesmata-located protein 3 fused to RFP) (Arabidopsis thaliana) (UniProt O22784)
T2 sequence: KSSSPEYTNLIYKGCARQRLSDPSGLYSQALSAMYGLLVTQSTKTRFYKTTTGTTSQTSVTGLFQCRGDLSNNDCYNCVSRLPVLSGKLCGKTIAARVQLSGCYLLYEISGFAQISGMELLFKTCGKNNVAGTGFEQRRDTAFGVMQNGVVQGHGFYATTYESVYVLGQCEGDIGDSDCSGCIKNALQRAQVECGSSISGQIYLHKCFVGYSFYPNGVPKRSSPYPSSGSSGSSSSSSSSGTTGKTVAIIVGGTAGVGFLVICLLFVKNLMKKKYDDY

[3] = target: T3, PDLP6:RFP (plasmodesmata-located protein 6 fused to RFP) (Arabidopsis thaliana) (UniProt Q9ZU94)
T3 sequence: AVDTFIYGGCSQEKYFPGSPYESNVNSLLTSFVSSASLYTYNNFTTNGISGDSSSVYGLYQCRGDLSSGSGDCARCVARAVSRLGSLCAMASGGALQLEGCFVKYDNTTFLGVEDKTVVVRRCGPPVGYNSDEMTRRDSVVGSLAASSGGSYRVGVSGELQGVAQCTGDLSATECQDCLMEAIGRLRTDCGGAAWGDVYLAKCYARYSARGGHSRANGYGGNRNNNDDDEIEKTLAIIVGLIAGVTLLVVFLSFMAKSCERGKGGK

[4] = target: T4, PDLP8:RFP (plasmodesmata-located protein 8 fused to RFP) (Arabidopsis thaliana) (UniProt Q6NKQ9)
T4 sequence: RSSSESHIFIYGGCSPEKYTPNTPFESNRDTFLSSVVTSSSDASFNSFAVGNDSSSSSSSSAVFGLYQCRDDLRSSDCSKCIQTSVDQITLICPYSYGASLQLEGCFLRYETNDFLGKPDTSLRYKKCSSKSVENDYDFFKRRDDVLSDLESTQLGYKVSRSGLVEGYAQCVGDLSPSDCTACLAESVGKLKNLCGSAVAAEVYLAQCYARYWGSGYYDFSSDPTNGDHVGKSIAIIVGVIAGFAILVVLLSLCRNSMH

[5] = target: T5, PDLP5:RFP (plasmodesmata-located protein 5 fused to RFP) (Arabidopsis thaliana) (UniProt Q8GUJ2)
T5 sequence: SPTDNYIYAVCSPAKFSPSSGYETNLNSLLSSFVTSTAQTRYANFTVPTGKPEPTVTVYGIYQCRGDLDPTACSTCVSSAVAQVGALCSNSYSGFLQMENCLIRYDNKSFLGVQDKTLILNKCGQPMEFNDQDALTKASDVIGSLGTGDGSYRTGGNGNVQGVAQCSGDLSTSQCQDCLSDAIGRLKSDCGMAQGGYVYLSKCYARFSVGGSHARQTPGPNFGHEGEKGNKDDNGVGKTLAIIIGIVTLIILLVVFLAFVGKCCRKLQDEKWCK

[6] = target: T6, PDLP2:RFP (plasmodesmata-located protein 2 fused to RFP) (Arabidopsis thaliana) (UniProt Q6NM73)
T6 sequence: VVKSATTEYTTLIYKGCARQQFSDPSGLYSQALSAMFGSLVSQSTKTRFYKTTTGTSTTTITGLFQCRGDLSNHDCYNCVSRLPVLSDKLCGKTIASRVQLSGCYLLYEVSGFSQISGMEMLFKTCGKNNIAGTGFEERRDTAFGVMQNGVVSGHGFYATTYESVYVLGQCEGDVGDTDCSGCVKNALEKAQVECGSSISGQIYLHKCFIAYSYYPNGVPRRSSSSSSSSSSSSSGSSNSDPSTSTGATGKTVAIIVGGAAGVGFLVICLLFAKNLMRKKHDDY

[7] = target: T7, PDLP4:RFP (plasmodesmata-located protein 4 fused to RFP) (Arabidopsis thaliana) (UniProt Q6E263)
T7 sequence: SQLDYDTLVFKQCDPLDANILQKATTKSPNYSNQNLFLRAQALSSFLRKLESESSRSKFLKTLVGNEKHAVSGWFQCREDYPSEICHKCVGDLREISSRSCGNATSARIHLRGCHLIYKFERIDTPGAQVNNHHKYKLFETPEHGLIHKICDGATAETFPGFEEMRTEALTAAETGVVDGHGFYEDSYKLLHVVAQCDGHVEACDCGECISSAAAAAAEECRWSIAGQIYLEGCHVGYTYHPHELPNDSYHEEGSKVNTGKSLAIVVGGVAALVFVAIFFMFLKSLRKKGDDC

[8] = target: T8, PDLP1:RFP (plasmodesmata-located protein 1 fused to RFP) (Arabidopsis thaliana) (UniProt Q8GXV7)
T8 sequence: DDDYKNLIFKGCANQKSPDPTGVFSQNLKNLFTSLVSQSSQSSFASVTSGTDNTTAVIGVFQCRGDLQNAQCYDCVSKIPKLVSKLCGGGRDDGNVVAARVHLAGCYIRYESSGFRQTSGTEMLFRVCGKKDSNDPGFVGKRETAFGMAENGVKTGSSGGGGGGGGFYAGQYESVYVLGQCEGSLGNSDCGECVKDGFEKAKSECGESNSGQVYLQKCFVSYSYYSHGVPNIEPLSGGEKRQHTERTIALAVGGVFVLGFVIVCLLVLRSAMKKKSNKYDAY

Measured: binding

GFP:2B (Grapevine fanleaf virus movement protein 2B fused to EGFP)
binds: all assays above
